Measurements: patent US12150933B2, “IL-8 inihibitors for use in the treatment of some urological disorders” (DOMPÉ FARMACEUTICI S.P.A., priority 2015, dated 2024)

System: CYP-induced visceral pain
Assay: Chronic administration in CYP-induced visceral pain in rats (Von Frey withdrawal threshold)
Format: in vivo, rat
Conditions: 3 mg/kg s.c.
Description: Cyclophosphamide, 75 mg/kg i.p. for 3 times, every 3rd day, was dissolved in distilled water and administered to animals by i.p. route (volume 5 mL/kg). Appropriate weight of Compd. 1 or Compd. 2 was dissolved in saline, all doses of test compounds were administered by oral gavage (volume 2 mL/kg).
On the day of the experiment, each rat was placed individually in a clear plastic testing box with a grid floor and allowed to acclimatize for at least 10 min. Visceral sensitivity in response to mechanical stimuli was determined using Von Frey monofilaments (1-2-4-8-15-26-60-100 g) applied in the lower abdominal area (close to the urinary bladder) and on both hind paws plantar surface (to evaluate referred pain).
Each Von Frey monofilament was applied 5 times at the level of abdomen and 3 times at the level of each paw, in an ascending order of strength at interval of 5 sec. A stimulus-induced response was considered positive when the paw was sharply withdrawn, paw licking occurred, or the animal flinched upon removal of the filament. […]
Repeated treatment with CYP (75 mg/kg i.p. for 3 times, every 3rd day), induces a strong decrease in withdrawal thresholds to noxious stimulus measured at the level of low abdomen and hind-paws.
Compd. […] Nociceptive hypersensitivity was evaluated about 18 hours after the last administration of Compd. […]

CN1CC[C@]23c4c5ccc(O)c4O[C@H]2[C@@H](O)C=C[C@H]3[C@H]1C5 [morphine, reference compound]
side effects: marked and well known side effects (sedation, respiratory effects)
